Experimental data published in article doi:10.1101/851410.
No constants are given. Whether binding was seen depends on the method and setting. In cells and extracts the contact can be indirect. Some binding calls cover weakened binding; strength is not graded here.

Amino acid sequences for entries named in this document (tags omitted). Residues count along the entry.
UniProt Q6DN90: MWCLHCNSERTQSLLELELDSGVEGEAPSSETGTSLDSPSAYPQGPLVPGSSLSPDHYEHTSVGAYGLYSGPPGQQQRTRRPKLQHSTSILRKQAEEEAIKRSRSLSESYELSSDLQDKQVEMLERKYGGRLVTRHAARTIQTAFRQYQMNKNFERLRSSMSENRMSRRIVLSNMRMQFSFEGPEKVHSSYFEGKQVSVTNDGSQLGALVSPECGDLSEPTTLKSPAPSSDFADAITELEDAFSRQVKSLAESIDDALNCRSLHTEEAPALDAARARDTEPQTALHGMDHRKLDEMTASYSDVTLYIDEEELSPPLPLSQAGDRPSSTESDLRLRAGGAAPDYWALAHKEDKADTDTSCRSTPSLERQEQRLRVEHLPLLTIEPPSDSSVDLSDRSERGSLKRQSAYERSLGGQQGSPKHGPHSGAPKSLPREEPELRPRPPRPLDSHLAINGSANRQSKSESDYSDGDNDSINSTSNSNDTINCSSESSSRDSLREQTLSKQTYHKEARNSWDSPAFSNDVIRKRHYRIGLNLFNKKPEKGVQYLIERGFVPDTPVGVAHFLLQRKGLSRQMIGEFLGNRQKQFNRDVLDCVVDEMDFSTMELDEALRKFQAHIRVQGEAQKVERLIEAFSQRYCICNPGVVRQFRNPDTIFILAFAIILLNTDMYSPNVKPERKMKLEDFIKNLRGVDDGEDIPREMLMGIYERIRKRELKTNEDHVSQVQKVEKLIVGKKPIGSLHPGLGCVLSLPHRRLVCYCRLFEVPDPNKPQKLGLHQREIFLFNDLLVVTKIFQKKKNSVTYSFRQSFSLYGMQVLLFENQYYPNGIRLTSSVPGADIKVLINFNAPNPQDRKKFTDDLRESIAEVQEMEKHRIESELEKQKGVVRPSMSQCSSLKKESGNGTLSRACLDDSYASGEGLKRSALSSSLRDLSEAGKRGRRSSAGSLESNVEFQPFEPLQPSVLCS
UniProt P08581, residues 25-1390: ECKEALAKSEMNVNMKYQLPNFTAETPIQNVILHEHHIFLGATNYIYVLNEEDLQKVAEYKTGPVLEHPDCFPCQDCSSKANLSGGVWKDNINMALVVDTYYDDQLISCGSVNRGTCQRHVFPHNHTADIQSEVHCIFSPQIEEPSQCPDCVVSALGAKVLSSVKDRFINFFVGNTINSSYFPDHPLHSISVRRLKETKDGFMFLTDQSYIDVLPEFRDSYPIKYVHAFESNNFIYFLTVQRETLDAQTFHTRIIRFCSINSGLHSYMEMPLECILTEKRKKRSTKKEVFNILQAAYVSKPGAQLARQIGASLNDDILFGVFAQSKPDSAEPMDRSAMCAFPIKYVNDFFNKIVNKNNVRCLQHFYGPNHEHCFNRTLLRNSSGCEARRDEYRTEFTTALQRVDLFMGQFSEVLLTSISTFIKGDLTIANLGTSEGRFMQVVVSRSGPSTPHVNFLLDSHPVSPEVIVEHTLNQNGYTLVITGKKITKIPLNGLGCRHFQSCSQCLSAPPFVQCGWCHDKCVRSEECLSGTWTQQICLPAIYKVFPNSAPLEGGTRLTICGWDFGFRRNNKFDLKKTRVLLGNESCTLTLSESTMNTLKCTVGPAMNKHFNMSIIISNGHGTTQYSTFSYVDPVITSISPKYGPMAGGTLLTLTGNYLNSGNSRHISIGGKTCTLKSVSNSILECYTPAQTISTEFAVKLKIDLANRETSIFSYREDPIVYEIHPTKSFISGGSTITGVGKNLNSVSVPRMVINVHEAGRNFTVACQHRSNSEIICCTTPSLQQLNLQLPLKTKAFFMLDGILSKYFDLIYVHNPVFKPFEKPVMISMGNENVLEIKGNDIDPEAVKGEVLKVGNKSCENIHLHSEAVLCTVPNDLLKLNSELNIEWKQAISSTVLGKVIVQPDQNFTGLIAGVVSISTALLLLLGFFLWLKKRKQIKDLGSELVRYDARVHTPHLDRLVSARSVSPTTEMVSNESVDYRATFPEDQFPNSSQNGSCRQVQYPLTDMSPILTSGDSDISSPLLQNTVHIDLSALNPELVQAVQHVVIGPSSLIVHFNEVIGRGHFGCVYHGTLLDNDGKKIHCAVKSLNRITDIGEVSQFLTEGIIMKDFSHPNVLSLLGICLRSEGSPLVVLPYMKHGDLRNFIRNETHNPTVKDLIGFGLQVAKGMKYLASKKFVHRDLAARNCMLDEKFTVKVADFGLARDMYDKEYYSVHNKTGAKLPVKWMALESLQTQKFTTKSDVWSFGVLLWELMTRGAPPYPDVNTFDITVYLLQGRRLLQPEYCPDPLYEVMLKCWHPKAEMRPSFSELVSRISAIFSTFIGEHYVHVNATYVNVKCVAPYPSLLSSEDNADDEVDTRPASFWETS
UniProt Q92673, residues 82-2214: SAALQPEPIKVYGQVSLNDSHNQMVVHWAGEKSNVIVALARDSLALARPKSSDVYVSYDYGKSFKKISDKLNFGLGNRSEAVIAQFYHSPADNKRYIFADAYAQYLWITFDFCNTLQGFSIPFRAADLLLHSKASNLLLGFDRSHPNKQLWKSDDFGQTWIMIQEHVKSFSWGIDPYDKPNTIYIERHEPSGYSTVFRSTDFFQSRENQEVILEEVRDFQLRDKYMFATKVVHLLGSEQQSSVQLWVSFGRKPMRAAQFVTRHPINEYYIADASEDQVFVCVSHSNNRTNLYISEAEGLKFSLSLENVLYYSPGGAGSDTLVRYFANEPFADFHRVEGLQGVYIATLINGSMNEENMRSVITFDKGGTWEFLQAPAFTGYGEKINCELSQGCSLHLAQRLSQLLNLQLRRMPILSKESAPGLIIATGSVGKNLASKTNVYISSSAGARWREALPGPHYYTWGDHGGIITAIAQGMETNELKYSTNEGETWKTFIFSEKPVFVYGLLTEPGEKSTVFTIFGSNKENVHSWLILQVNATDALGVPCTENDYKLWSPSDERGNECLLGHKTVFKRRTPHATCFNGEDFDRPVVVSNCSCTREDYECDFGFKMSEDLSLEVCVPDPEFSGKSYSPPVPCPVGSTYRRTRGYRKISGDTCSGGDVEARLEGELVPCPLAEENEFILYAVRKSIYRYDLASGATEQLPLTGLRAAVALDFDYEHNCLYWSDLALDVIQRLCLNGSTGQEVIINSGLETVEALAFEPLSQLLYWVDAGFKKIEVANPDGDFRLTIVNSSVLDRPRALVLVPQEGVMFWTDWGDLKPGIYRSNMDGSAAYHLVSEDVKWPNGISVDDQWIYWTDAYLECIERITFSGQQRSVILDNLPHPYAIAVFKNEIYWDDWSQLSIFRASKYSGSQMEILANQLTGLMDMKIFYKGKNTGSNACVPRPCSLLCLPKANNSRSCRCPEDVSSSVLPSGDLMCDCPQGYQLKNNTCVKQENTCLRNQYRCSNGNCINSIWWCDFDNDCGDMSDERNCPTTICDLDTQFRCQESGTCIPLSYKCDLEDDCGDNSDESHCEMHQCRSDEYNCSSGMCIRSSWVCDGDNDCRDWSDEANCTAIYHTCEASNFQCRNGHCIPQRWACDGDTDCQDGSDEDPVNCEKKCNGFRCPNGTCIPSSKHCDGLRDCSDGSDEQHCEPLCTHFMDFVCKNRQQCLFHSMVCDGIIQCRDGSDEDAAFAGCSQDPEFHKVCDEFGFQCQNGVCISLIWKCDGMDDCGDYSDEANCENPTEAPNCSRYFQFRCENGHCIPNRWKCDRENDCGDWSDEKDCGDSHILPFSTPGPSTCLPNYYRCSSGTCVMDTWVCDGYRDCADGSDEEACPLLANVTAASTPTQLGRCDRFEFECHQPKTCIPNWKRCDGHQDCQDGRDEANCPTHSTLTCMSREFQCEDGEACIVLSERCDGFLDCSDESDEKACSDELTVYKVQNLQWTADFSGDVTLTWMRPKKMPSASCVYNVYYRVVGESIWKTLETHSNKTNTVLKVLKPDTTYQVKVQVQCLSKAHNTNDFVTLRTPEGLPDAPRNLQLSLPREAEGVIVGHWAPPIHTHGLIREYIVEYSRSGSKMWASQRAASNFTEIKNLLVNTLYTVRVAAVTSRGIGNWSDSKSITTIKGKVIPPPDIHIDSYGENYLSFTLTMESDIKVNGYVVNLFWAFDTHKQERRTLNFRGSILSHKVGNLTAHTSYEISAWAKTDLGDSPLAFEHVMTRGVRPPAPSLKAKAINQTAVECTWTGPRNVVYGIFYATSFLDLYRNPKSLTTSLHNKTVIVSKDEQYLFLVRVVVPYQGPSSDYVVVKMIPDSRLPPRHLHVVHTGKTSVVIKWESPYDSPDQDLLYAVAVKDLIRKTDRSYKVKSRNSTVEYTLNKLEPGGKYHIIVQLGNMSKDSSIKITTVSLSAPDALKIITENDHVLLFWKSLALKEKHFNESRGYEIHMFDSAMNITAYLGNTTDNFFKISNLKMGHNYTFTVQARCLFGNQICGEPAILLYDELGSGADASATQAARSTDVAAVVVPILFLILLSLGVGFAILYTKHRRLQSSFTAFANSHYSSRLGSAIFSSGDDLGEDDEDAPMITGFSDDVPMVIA

Experiments:
[1] = target: GFP-IQSEC1 v2 (human) (UniProt Q6DN90); assay: co-IP
[2] = target: Met, the receptor for HGF (human (endogenous in PC3)) (UniProt P08581); assay: co-IP

Substance	binding [1]	binding [2]
SORL1 (Sortilin-Related Receptor 1) (from UniProt Q92673 82-2214)	binds	
Met, the receptor for HGF (from UniProt P08581 25-1390)	binds	
LRP1 (Low density lipoprotein receptor-Related Protein 1) (from UniProt Q07954 20-4544)	binds	binds
